In patent publication US12528837B2 (priority 2018, dated 2026) one finds step yield data, which are given here for 1 substance.

This data set is described as follows: general procedure: Fmoc solid-phase peptide synthesis; chlorotrityl chloride (CTC)-resin pre-loaded with Fmoc-Thr(tBu)-OH; Fmoc-Thr(tBu)-PEG-PS resin; HATU/DIPEA. As to conditions: late stage modification step.

Consider “H-Thr(O-^tBu)-Dap(BOC)-Cyclo[Dab-Dab(BOC)-Dleu-L-Abu-Dab(BOC)-Dab(BOC)-Thr(O-tBu)]”, for which the step yield stood at 96%.
